Measurements from PubChem BioAssay AID1671190 (National Center for Advancing Translational Sciences (NCATS), 2021).
Hit rate of the full screen: of about 580,000 compounds, about 6,100 (1.1%) were called active. Inconclusive means that the source gave no clear call. Such entries were picked first, then a sample of the others. Calls come from the whole dose curve; as a rule, active = well fitted inhibition curve with a large enough effect; inconclusive = small, poorly fitted or top-dose-only effect, or another doubt; inactive = no such curve, though single readings can be large or run the other way. Where the call is inconclusive, the potency comes from a doubtful curve fit.
% is set by controls: 0 for no effect and ±100 for the full control effect; potency is the fitted concentration of half-maximal effect.

Amino acid sequences for entries named in this document (tags omitted).
UniProt P18054, whole entry, looked up: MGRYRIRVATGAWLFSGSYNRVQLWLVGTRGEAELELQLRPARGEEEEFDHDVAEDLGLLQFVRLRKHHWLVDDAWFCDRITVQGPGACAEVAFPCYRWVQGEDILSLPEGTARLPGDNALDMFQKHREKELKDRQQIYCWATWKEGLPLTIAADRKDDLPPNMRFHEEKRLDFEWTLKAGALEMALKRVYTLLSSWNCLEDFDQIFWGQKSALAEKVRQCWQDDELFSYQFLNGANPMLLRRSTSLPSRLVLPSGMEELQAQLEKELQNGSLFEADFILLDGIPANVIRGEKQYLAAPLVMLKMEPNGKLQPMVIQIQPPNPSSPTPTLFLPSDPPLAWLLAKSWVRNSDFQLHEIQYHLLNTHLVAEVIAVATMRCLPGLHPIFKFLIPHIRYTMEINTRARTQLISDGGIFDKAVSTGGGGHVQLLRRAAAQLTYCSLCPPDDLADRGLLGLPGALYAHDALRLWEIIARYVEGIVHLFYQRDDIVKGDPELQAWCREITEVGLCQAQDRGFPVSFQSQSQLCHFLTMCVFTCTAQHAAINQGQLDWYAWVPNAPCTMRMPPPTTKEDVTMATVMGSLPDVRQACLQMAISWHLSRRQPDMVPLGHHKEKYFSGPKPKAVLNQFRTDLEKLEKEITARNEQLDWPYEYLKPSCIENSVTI

These compounds were tested against Polyunsaturated fatty acid lipoxygenase ALOX12 (Homo sapiens) (UniProt P18054) (assay: Primary qHTS assay for inhibitors of human arachidonate 12S-lipoxygenase (ALOX12): Round 2). Conditions: purified 12hLO, xylenol orange hydroperoxide absorbance; activity change, negative = inhibition: at 108 µM (top of the series) unless noted.
How it was run: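 Hydroperoxide product was detected by ferrous iron/xylenol orange as the 573 to 405 nm absorbance ratio. Arachidonic acid at 40 uM (final) was turned over for 30 min at room temperature by 150 nM human 12hLO, pH 7.0 Hepes buffer, after 15 min compound preincubation.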
With `N#CC1=C(N)N(c2ccccc2)C2=C(C(=O)CCC2)C1c1ccccc1` (centres undefined) the Potency was inconclusive: 39.8 µM [inhibitor, partial curve, poor fit].
For `CC1(C)Cc2c(sc3ncnc(N)c23)CO1`, the Potency was “inactive”.
With `COc1cc2ccccc2cc1C(=O)Nc1ccc(O)cc1` the Potency was inconclusive: 44.7 µM [inhibitor, partial curve, poor fit].
In the case of `Cc1n[nH]c(=O)c2c(NC(=O)CSc3ccccc3Cl)oc(C)c12`, the Potency is reported as inconclusive: 79.4 µM [inhibitor, partial curve, poor fit].
In the case of `CO/N=C/CC(=O)c1cnc(-c2ccc(Cl)cc2)s1`, the Potency is reported as inconclusive: 3.98 µM [inhibitor, full curve, poor fit].
For `COc1ccccc1-c1cc(C(F)(F)F)nc(S(=O)(=O)CCCC(=O)Nc2cc(C)ccc2O)n1`, the Potency was inconclusive: 112 µM [inhibitor, partial curve, poor fit].
With `Cc1ccc(C(C2=C(O)CC(C)(C)CC2=O)C2C(=O)CC(C)(C)CC2=O)s1` (centres undefined) the Potency was inconclusive: 35.5 µM [inhibitor, partial curve, poor fit].
For `CCOc1ccc(CNC(=O)c2cc3c(=O)n(Cc4cccs4)ccc3nc2C)cc1`, the Potency was “inactive”.
`S=C(Nc1ccn(C23CC4CC(CC(C4)C2)C3)n1)NC1CCCC1` was tested, and the Potency was inconclusive: 35.5 µM [inhibitor, partial curve, poor fit].
In the case of `COCC(=O)NC[C@@H]1C=C(C)[C@H](Cc2nc3ccc(C(=O)OC)cc3[nH]2)C[C@H]1C(C)C`, the Potency is reported as “inactive”.
With `COc1cc(C)c(CN2C[C@H](Sc3nc4ccccc4[nH]3)C[C@H]2C(=O)N(C)C)cc1C` the Potency was inconclusive: 100 µM [inhibitor, single point].
In the case of `CCc1cc(C(c2ccc(OC)cc2)N2CCOCC2)c(NC(=O)c2ccco2)s1` (centres undefined), the Potency is reported as active: 7.08 µM.
With `COc1cccc(NC(=O)C2CC(=O)n3cnnc3S2)c1` (centres undefined) the Potency was inconclusive: 8.91 µM [inhibitor, full curve].
With `CCO/C(C)=N/n1c2nc3ccccc3nc2c2c(=O)n(Cc3ccccc3Cl)c(C)nc21` the Potency was “inactive”.
`CN(Cc1ccc(F)cc1F)C(=O)c1cc(Br)ccc1O` was tested, and the Potency was active: 10 µM.
In the case of `CC(C)(C)NC(=O)C1c2ccccc2OCC(=O)N1Cc1ccco1` (centres undefined), the activity change, negative = inhibition is reported as inconclusive: -43.8% [inhibitor].
With `COc1ccccc1CCn1c(=O)c(-c2ccccc2)nc2cncnc21` the Potency was inconclusive: 79.4 µM [inhibitor, partial curve, poor fit].
For `C=C(C)COc1ccc2c(C)c(CC(=O)Nc3ccc4c(c3)OCCO4)c(=O)oc2c1`, the Potency was inconclusive: 4.47 µM [inhibitor, full curve, poor fit].
In the case of `Cc1ccc(S(=O)(=O)N2CCN(c3ncnc4sccc34)CC2)cc1C`, the Potency is reported as “inactive”.
In the case of `COc1ccc(-n2c(SCC(=O)N/N=C/c3ccccc3OCC(=O)O)nc3ccccc3c2=O)cc1`, the Potency is reported as inconclusive: 2.82 µM [inhibitor, full curve, poor fit].
In the case of `COc1ccc(C2CC(=O)C3=C(C2)NC(C)=C(C#N)C3c2ccc(N(C)C)cc2)cc1` (centres undefined), the Potency is reported as “inactive”.
In the case of `Cc1cc(C)n2c(Nc3ccc(Cl)cc3)c(-c3ccsc3)nc2n1`, the Potency is reported as inconclusive: 79.4 µM [inhibitor, partial curve, poor fit].
For `CCOc1ccc(NC(=S)N2CCN(S(=O)(=O)c3ccc(OC)cc3)CC2)cc1`, the Potency was inconclusive: 44.7 µM [inhibitor, partial curve, poor fit].
`CCN1CCN(C(C)C(=O)Nc2c(C)n(C)n(-c3ccccc3)c2=O)CC1` (centres undefined) was tested, and the Potency was inconclusive: 0.224 µM [inhibitor, full curve, poor fit].
`O=c1c2ccccc2c2ccccc2c(=O)n1Nc1ccccc1` was tested, and the Potency was inconclusive: 44.7 µM [inhibitor, partial curve, poor fit].
In the case of `Cc1sc2nc(SCC(=O)N(C)Cc3ccccc3)n(-c3ccccc3)c(=O)c2c1C`, the Potency is reported as “inactive”.
`COc1ccc(-c2nc(N)n(S(=O)(=O)c3ccc(C)cc3)n2)cc1` was tested, and the Potency was inconclusive: 44.7 µM [inhibitor, partial curve, poor fit].
For `COc1ccc(CNc2nc(NCc3ccc(OC)cc3)n(S(=O)(=O)c3ccccc3)n2)cc1`, the Potency was inconclusive: 44.7 µM [inhibitor, partial curve, poor fit].
In the case of `COc1ccc(CCCNC(=O)C2CCC(=O)N(CC3CCCCC3)C2)cc1` (centres undefined), the Potency is reported as “inactive”.
With `CCc1ccc(-c2cc(C(=O)OC)c3ccccc3n2)cc1` the Potency was inconclusive: 35.5 µM [inhibitor, partial curve, poor fit].
`Cc1cccc(-n2nnnc2SCC(=O)c2cc(C)n(CC3CCCO3)c2C)c1` (centres undefined) was tested, and the Potency was “inactive”.
With `COc1ccc(CCNC(=O)c2ccc(OCc3c(C)noc3C)c(OC)c2)cc1` the Potency was “inactive”.
`C=CCN(C)C(=O)[C@@H](C)C1CC[C@@]2(C)Cc3sc(NS(=O)(=O)c4ccc(Cl)cc4)nc3[C@@H](C)[C@@H]2[C@H]1O` (some centres undefined) was tested, and the Potency was active: 31.6 µM.
`CCOC(=O)N/N=C1\CCS(=O)(=O)c2ccc(Cl)cc21` was tested, and the Potency was inconclusive: 35.5 µM [inhibitor, single point].
With `CN(C)CCCNc1nc(-c2ccc(Cl)cc2)c(CC(=O)O)s1` the Potency was inconclusive: 112 µM [inhibitor, single point].
With `CC(C)(C)c1ccc(C(=O)NCCc2csc3nc(-c4ccccc4F)nn23)cc1` the Potency was inconclusive: 126 µM [inhibitor, partial curve, poor fit].
`COc1ccc(C2(Nc3cccc(C(=O)O)c3C)C(=O)c3ccccc3C2=O)cc1` was tested, and the Potency was inconclusive: 25.1 µM [inhibitor, partial curve].
In the case of `CCC[C@@H](CN1CCC[C@H]1CN1C(N)=NC[C@H]1C(C)C)N1C[C@@H](Cc2ccccc2)N(CCCC2CCCC2)C1=N`, the Potency is reported as inconclusive: 39.8 µM [inhibitor, partial curve].
`O=C1OC(c2ccccc2)=C/C1=C/c1cccs1` was tested, and the Potency was inconclusive: 112 µM [inhibitor, partial curve, poor fit].
With `CCN(CC)c1cc(C)c2ccccc2n1` the Potency was inconclusive: 2.24 µM [inhibitor, full curve, poor fit].
In the case of `COc1ccc(C2(CNC(=O)c3ccccc3)CCOCC2)cc1`, the Potency is reported as inconclusive: 126 µM [inhibitor, single point].
In the case of `Cc1ccc(NC(=O)C2CCN(S(=O)(=O)c3c(C)noc3C)CC2)c(C)c1`, the Potency is reported as “inactive”.
For `Cc1ccc(-c2sc(-c3ccccc3)nc2CC(=O)Nc2ccccc2F)cc1`, the Potency was “inactive”.
`CC(OC(=O)Cn1[nH]c(=O)c2ccccc2c1=O)C(=O)Nc1ccc(F)cc1Cl` (centres undefined) was tested, and the activity change, negative = inhibition was inconclusive: -34.6% [inhibitor].
In the case of `Cc1ccc(-c2cc(C(=O)OCC(=O)N3CCCC3)c3ccccc3n2)o1`, the Potency is reported as inconclusive: 7.94 µM [inhibitor, full curve, poor fit].
For `CCCCCCCCCCCCS(=O)CC(O)CCl` (centres undefined), the Potency was inconclusive: 89.1 µM [inhibitor, single point].
`Clc1ccc(-c2nc(C3CC3)nc3c2CCN(Cc2ccccc2)CC3)cc1` was tested, and the Potency was inconclusive: 22.4 µM [inhibitor, full curve, poor fit].
For `COc1ccc(NC(=O)N(C)C[C@H]2Oc3ccc(NC(=O)Nc4c(C)noc4C)cc3C(=O)N([C@H](C)CO)C[C@H]2C)cc1`, the Potency was inconclusive: 100 µM [inhibitor, partial curve, poor fit].
With `CN(C)S(=O)(=O)c1ccc(N2CCCC2)c(C(=O)N2CCc3ccccc32)c1` the Potency was “inactive”.
In the case of `N=C1SC(CC(=O)Nc2ccc([N+](=O)[O-])cc2)C(=O)N1c1ccccc1` (centres undefined), the Potency is reported as inconclusive: 126 µM [inhibitor, partial curve, poor fit].
In the case of `CCOc1cc(CNCC(O)c2ccccc2)ccc1Oc1nnnn1-c1ccccc1` (centres undefined), the Potency is reported as inconclusive: 89.1 µM [inhibitor, partial curve, poor fit].
`O/N=C1\CC(c2ccccc2)Oc2c(Cl)cc(Cl)cc21` (centres undefined) was tested, and the Potency was inconclusive: 39.8 µM [inhibitor, partial curve, poor fit].
For `COC(=O)C1SCC2C(=O)N(Cc3ccc(Cl)cc3)CC(=O)N21` (centres undefined), the Potency was “inactive”.
With `Cc1ccc(NC(=O)Nc2ccnc(-c3cccnc3)n2)cc1` the Potency was “inactive”.
In the case of `CCN1CCN(Cc2ccc(OCc3ccccc3)c(OC)c2)CC1`, the Potency is reported as inconclusive: 15.8 µM [inhibitor, full curve, poor fit].
In the case of `CCN(CC)C(=O)c1cc(-c2ccc(C)s2)nc2ccccc12`, the Potency is reported as inconclusive: 50.1 µM [inhibitor, partial curve, poor fit].
With `Cc1nc([N+](=O)[O-])c(Br)n1Cc1ccc(Cl)c(Cl)c1` the Potency was “inactive”.
For `Cc1ccc(C(=O)Sc2nc(C)cc(C)n2)cc1`, the Potency was inconclusive: 6.31 µM [inhibitor, full curve, poor fit].
`O=C(Cc1cccs1)NC1CC(=O)N(c2cccc(F)c2)C1` (centres undefined) was tested, and the Potency was inconclusive: 141 µM [inhibitor, partial curve, poor fit].
`CN(C)c1ccc(-c2[nH][nH]c(=O)c2NC(=O)c2ccccn2)cc1` was tested, and the Potency was “inactive”.
With `O=C(Nc1c2c(nn1-c1cccc(Cl)c1)CS(=O)(=O)C2)c1ccc2c(c1)OCO2` the Potency was inconclusive: 28.2 µM [inhibitor, partial curve, poor fit].
For `CCOC(=O)c1cc2cc(Oc3ccccc3)ccc2n1C`, the Potency was inconclusive: 7.94 µM [inhibitor, partial curve, poor fit].
With `Cc1sc2ncnc(OCC(=O)Nc3ccc(S(=O)(=O)N4CCCC4)cc3)c2c1C` the Potency was inconclusive: 3.55 µM [inhibitor, full curve, poor fit].
For `COc1ccc(CC(=O)Oc2ccc(F)c(F)c2)cc1S(=O)(=O)N1CCOCC1`, the Potency was inconclusive: 44.7 µM [inhibitor, partial curve, poor fit].
